The target of assay [1] is T1, maltose-binding protein-TTP-(His)6 (mouse) (UniProt P22893).
T1 sequence: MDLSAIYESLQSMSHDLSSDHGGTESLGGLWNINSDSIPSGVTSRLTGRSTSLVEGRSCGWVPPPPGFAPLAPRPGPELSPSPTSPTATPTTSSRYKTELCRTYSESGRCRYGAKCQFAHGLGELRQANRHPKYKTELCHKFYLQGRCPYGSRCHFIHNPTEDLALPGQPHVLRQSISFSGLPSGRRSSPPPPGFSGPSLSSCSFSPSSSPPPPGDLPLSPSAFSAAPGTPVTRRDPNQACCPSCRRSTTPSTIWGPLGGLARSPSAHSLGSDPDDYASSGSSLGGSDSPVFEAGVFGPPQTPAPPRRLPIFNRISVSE
The assay is described as follows: phage display biopanning; 10 µg MBP-TTP-(His)6 immobilised on 20 µl Ni-NTA resin; amplified T7 phage library (RAW264.7 cDNA) added overnight at 4°C; 50 mM Tris-Cl pH 7.5, 150 mM NaCl, 0.1% Tween-20; 10 rounds; clones of rounds 4, 9 and 10 sequenced; only the target purified.

In a further assay the target is MBP-PABPN1@1-245 (mouse). The assay is described as follows: pull-down; MBP-PABPN1-HA-(His)6, a deletion mutant of it or MBP (1 µg) immobilised on amylose resin; 1 µg target protein added overnight at 4°C; 20 mM Tris-Cl pH 7.0, 150 mM NaCl, 0.1% NP-40, 5 mM MgCl2, 1 mM DTT; Coomassie Blue and western blot (anti-GST, anti-myc); both purified.
A further assay has as its target MBP-PABPN1@1-271 (mouse). The assay is described as above.
In assay [2] the target is MBP-PABPN1@144-245 (mouse). The assay is described as above.
The target of assay [3] is MBP-PABPN1@144-302 (mouse). The assay is described as above.
For assay [4], the target named is MBP-PABPN1@203-271 (mouse). The assay is described as above.
In assay [5] the target is MBP-PABPN1@203-302 (mouse). Described as above.
Assay [6] concerns the target MBP-PABPN1@246-302 (mouse). Described as above.

Results are given in words; binding and its absence hold for the method and conditions named. For some assays here: Binding calls can cover weak binding; strength is not graded here. Tags and fused reporters may be left off the sequences shown.

With “PABPN1 residues 131-302, displayed on T7 phage (mouse) (domain or fragment)”, in assay [1], the binding entry was “binds”.

B1: N-terminally glutathione S-transferase-tagged wild-type TTP (natural protein, mouse, UniProt P22893 2-319, looked up)
chain: DLSAIYESLQSMSHDLSSDHGGTESLGGLWNINSDSIPSGVTSRLTGRSTSLVEGRSCGWVPPPPGFAPLAPRPGPELSPSPTSPTATPTTSSRYKTELCRTYSESGRCRYGAKCQFAHGLGELRQANRHPKYKTELCHKFYLQGRCPYGSRCHFIHNPTEDLALPGQPHVLRQSISFSGLPSGRRSSPPPPGFSGPSLSSCSFSPSSSPPPPGDLPLSPSAFSAAPGTPVTRRDPNQACCPSCRRSTTPSTIWGPLGGLARSPSAHSLGSDPDDYASSGSSLGGSDSPVFEAGVFGPPQTPAPPRRLPIFNRISVSE
notes: also called WT GST-TTP; GST-TTP; source: E. coli STBL2 or Rosetta(DE3)pLacI, purified (glutathione-agarose); not shown: GST, N-terminal, kept
With B1, the binding result with MBP-PABPN1@1-245 (mouse) is reported as “no binding (tested: 1 µg)”; in the assay with MBP-PABPN1@1-271 (mouse) it was “no binding (tested: 1 µg)”; in assay [2] it was “no binding (tested: 1 µg)”; in assay [3], “binds”; in assay [4], “binds”; in assay [5], “binds”. Besides, the binding result in assay [6] is recorded as “binds”.

(Values after publication PMC3406032, “Tristetraprolin Inhibits Poly(A)-Tail Synthesis in Nuclear mRNA that Contains AU-Rich Elements by Interacting with Poly(A)-Binding Protein Nuclear 1” (PLoS ONE, 2012).)
